# Experimental data as given in the supplement of paper PMC8728848.
# This is one part of the list.
# Experiments:
# Assay in all cases: glycan array binding signal (z-score within array); higher = stronger binding
# Details in all cases: glycan notation: IUPAC condensed, linker removed
# [1] = biological target: Gal(b1-4)GlcNAc(b1-6)GalNAc
# Outline: (§1)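 From the Consortium for Functional Glycomics database, 3228 arrays were curated, keeping only those whose protein sequence was available. Binding is given as a within-array Z-score averaged across arrays sharing a protein sequence and across linkers. Negative Z-scores can be read as non-binding.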
# [2] = biological target: Gal(b1-4)GlcNAc(b1-6)[Gal(b1-3)]GalNAc
# Outline: as §1
# [3] = biological target: Gal(b1-4)GlcNAc(b1-6)[Gal(b1-4)GlcNAc(b1-3)]GalNAc
# Outline: as §1
# [4] = biological target: Gal(b1-4)GlcNAc6P
# Outline: as §1
# [5] = biological target: Gal(b1-6)Gal
# Outline: as §1
# [6] = biological target: Gal3S(b1-3)GalNAc
# Outline: as §1
# [7] = biological target: Gal3S(b1-3)GlcNAc
# Outline: as §1
# [8] = biological target: Gal3S(b1-3)[Fuc(a1-4)]GlcNAc
# Outline: as §1
# [9] = biological target: Gal3S(b1-4)Glc
# Outline: as §1
# [10] = biological target: Gal3S(b1-4)Glc6S
# Outline: as §1
# [11] = biological target: Gal3S(b1-4)GlcNAc
# Outline: as §1
# [12] = biological target: Gal3S(b1-4)[Fuc(a1-3)]Glc6S
# Outline: as §1
# [13] = biological target: Gal3S(b1-4)[Fuc(a1-3)]GlcNAc
# Outline: as §1
# [14] = biological target: Gal3S(b1-4)[Fuc(a1-3)]GlcNAc6S
# Outline: as §1
# [15] = biological target: Gal3S4S(b1-4)GlcNAc
# Outline: as §1
# [16] = biological target: Gal3S6S(b1-4)GlcNAc
# Outline: as §1
# [17] = biological target: Gal3S6S(b1-4)GlcNAc6S
# Outline: as §1
# [18] = biological target: Gal4S(b1-4)GlcNAc
# Outline: as §1
# [19] = biological target: Gal4S6S(b1-4)GlcNAc
# Outline: as §1
# [20] = biological target: Gal6P(b1-4)GlcNAc
# Outline: as §1
# [21] = biological target: Gal6S(b1-3)GlcNAc
# Outline: as §1
# [22] = biological target: Gal6S(b1-3)GlcNAc6S
# Outline: as §1
# [23] = biological target: Gal6S(b1-4)Glc
# Outline: as §1
# [24] = biological target: Gal6S(b1-4)Glc6S
# Outline: as §1
# [25] = biological target: Gal6S(b1-4)GlcNAc
# Outline: as §1
# [26] = biological target: Gal6S(b1-4)GlcNAc6S
# Outline: as §1
# [27] = biological target: GalNAc(a1-3)Gal
# Outline: as §1
# [28] = biological target: GalNAc(a1-3)GalNAc
# Outline: as §1
# [29] = biological target: GalNAc(a1-3)GalNAc(a1-3)Gal(a1-4)Gal(b1-4)GlcNAc
# Outline: as §1
# [30] = biological target: GalNAc(a1-3)GalNAc(b1-3)Gal(a1-4)Gal(b1-4)Glc
# Outline: as §1
# [31] = biological target: GalNAc(b1-3)Gal
# Outline: as §1
# [32] = biological target: GalNAc(b1-3)Gal(a1-4)Gal(b1-4)GlcNAc
# Outline: as §1
# [33] = biological target: GalNAc(b1-3)Gal(a1-4)Gal(b1-4)GlcNAc(b1-3)Gal(b1-4)Glc
# Outline: as §1
# [34] = biological target: GalNAc(b1-3)Gal(a1-6)Gal(b1-4)Glc
# Outline: as §1
# [35] = biological target: GalNAc(b1-3)GalNAc
# Outline: as §1
# [36] = biological target: GalNAc(b1-3)GlcNAc
# Outline: as §1
# [37] = biological target: GalNAc(b1-4)Gal(b1-4)Glc
# Outline: as §1
# [38] = biological target: GalNAc(b1-4)GlcNAc
# Outline: as §1
binder,measurement,setting,value
"AntigenI/IIC123 (Streptococcus mutans), C9E3B4 (protein) MASMTGGQQMGRIHFHYFKLAVQPQVNKEIRNNNDINIDRTLVAKQSVVKFQLKTADLPAGRDETTSFVLVDPLPSGYQFNPEATKAASPGFDVTYDNATNTVTFKATAATLATFNADLTKSVATIYPTVVGQVLNDGATYKNNFTLTVNDAYGIKSNVVRVTTPGKPNDPDNPNNNYIKPTKVNKNENGVVIDGKTVLAGSTNYYELTWDLDQYKNDRSSADTIQKGFYYVDDYPEEALELRQDLVKITDANGNEVTGVSVDNYTNLEAAPQEIRDVLSKAGIRPKGAFQIFRADNPREFYDTYVKTGIDLKIVSPMVVKKQMGQTGGSYENQAYQIDFGNGYASNIIINNVPKINPKKDVTLTLDPADTNNVDGQTIPLNTVFNYRLIGGIIPADHSEELFEYNFYDDYDQTGDHYTGQYKVFAKVDITFKDGSIIKSGAELTQYTTAEVDTAKGAITIKFKEAFLRSVSIDSAFQAESYIQMKRIAVGTFENTYINTVNGVTYSSLEHHHHHH",glycan array binding signal (z-score),[1],0.962
same,glycan array binding signal (z-score),[2],-0.39
same,glycan array binding signal (z-score),[3],-0.426
same,glycan array binding signal (z-score),[4],-0.135
same,glycan array binding signal (z-score),[5],0.178
same,glycan array binding signal (z-score),[6],-0.353
same,glycan array binding signal (z-score),[7],-0.283
same,glycan array binding signal (z-score),[8],0.191
same,glycan array binding signal (z-score),[9],-0.499
same,glycan array binding signal (z-score),[10],0.433
same,glycan array binding signal (z-score),[11],-0.346
same,glycan array binding signal (z-score),[12],2.84
same,glycan array binding signal (z-score),[13],0.749
same,glycan array binding signal (z-score),[14],-0.92
same,glycan array binding signal (z-score),[15],-0.756
same,glycan array binding signal (z-score),[16],-0.745
same,glycan array binding signal (z-score),[17],-0.223
same,glycan array binding signal (z-score),[18],1.04
same,glycan array binding signal (z-score),[19],-0.71
same,glycan array binding signal (z-score),[20],-0.46
same,glycan array binding signal (z-score),[21],2.1
same,glycan array binding signal (z-score),[22],-0.842
same,glycan array binding signal (z-score),[23],-0.033
same,glycan array binding signal (z-score),[24],0.758
same,glycan array binding signal (z-score),[25],-0.348
same,glycan array binding signal (z-score),[26],0.272
same,glycan array binding signal (z-score),[27],0.205
same,glycan array binding signal (z-score),[28],-0.53
same,glycan array binding signal (z-score),[29],-0.785
same,glycan array binding signal (z-score),[30],-0.246
same,glycan array binding signal (z-score),[31],-0.216
same,glycan array binding signal (z-score),[32],0.6
same,glycan array binding signal (z-score),[33],-0.71
same,glycan array binding signal (z-score),[34],-0.98
same,glycan array binding signal (z-score),[35],-0.97
same,glycan array binding signal (z-score),[36],-0.602
same,glycan array binding signal (z-score),[37],0.156
same,glycan array binding signal (z-score),[38],1.11

# 3 entries from above, with bars between the fields:
binder | measurement | setting | value
AntigenI/IIC123 (Streptococcus mutans), C9E3B4 (protein) MASMTGGQQMGRIHFHYFKLAVQPQVNKEIRNNNDINIDRTLVAKQSVVKFQLKTADLPAGRDETTSFVLVDPLPSGYQFNPEATKAASPGFDVTYDNATNTVTFKATAATLATFNADLTKSVATIYPTVVGQVLNDGATYKNNFTLTVNDAYGIKSNVVRVTTPGKPNDPDNPNNNYIKPTKVNKNENGVVIDGKTVLAGSTNYYELTWDLDQYKNDRSSADTIQKGFYYVDDYPEEALELRQDLVKITDANGNEVTGVSVDNYTNLEAAPQEIRDVLSKAGIRPKGAFQIFRADNPREFYDTYVKTGIDLKIVSPMVVKKQMGQTGGSYENQAYQIDFGNGYASNIIINNVPKINPKKDVTLTLDPADTNNVDGQTIPLNTVFNYRLIGGIIPADHSEELFEYNFYDDYDQTGDHYTGQYKVFAKVDITFKDGSIIKSGAELTQYTTAEVDTAKGAITIKFKEAFLRSVSIDSAFQAESYIQMKRIAVGTFENTYINTVNGVTYSSLEHHHHHH | glycan array binding signal (z-score) | [2] | -0.39
same | glycan array binding signal (z-score) | [5] | 0.178
same | glycan array binding signal (z-score) | [21] | 2.1
